Test results reported in PubChem BioAssay (EPA / NIEHS).
The shares of active, inactive and inconclusive entries below differ from those in the screen. For some assays here: A potency beside an inconclusive call is a rough fit, not a confirmed value. The source made the active and inactive calls. How the source made its calls: active means hit-call score of the fitted dose curve at least 0.9, where 1 is the maximum; inconclusive means response in the unintended direction; inactive means score below 0.9.

Protein sequences, listed by entry. Tags and fused reporters are not part of them. Lines headed by an entry give the natural chain unless they say otherwise; changes in a name come on top.
UniProt P33261, whole entry, looked up: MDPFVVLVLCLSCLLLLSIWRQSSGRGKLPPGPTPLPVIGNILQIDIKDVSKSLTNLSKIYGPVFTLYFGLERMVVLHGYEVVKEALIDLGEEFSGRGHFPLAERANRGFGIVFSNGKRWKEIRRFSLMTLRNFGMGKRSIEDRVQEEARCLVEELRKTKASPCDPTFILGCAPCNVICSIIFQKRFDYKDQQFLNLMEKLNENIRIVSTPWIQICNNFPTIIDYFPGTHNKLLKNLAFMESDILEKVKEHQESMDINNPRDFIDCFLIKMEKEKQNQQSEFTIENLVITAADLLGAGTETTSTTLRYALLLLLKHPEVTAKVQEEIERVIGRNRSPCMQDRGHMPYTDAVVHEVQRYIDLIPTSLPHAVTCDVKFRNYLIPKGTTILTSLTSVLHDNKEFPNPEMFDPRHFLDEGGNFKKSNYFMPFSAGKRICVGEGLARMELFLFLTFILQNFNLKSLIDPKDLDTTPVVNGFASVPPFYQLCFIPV
UniProt P04406: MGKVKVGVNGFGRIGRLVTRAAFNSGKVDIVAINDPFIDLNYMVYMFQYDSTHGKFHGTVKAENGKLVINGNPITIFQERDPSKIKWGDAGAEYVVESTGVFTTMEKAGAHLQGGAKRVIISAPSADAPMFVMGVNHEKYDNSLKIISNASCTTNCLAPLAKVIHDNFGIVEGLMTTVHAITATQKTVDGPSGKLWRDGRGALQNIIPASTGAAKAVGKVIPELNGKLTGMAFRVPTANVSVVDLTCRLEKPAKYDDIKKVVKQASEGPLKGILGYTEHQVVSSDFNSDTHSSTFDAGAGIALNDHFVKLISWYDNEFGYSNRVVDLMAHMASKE
UniProt P25101, whole entry, looked up: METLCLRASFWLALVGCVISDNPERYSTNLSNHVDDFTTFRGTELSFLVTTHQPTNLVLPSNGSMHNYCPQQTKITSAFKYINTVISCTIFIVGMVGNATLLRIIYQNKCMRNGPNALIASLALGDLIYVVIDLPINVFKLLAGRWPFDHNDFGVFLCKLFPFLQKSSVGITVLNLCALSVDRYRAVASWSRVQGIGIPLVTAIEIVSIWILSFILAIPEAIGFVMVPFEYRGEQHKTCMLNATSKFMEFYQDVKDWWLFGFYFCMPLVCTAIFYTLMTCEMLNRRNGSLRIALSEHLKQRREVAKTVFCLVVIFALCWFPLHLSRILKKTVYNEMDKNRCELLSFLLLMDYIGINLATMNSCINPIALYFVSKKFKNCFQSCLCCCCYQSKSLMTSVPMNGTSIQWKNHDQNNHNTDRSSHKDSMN
UniProt P37288, whole entry, looked up: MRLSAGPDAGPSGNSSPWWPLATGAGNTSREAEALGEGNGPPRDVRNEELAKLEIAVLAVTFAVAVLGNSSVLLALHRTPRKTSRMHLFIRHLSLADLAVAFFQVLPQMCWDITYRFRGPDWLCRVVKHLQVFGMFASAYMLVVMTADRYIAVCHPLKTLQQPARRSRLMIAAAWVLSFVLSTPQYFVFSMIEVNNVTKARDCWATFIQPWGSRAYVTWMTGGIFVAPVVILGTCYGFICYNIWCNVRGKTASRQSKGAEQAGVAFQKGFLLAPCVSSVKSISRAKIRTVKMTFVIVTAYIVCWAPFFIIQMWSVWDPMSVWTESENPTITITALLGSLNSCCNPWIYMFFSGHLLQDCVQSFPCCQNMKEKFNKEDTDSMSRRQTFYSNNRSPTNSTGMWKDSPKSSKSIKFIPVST
UniProt P22734: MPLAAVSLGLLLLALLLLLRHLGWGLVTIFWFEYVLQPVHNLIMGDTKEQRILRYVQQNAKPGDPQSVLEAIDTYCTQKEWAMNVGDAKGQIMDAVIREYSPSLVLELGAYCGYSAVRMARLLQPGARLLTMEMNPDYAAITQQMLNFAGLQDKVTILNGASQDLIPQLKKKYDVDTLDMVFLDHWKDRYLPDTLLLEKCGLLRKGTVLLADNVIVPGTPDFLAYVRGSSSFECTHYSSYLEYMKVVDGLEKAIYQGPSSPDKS
UniProt Q15722: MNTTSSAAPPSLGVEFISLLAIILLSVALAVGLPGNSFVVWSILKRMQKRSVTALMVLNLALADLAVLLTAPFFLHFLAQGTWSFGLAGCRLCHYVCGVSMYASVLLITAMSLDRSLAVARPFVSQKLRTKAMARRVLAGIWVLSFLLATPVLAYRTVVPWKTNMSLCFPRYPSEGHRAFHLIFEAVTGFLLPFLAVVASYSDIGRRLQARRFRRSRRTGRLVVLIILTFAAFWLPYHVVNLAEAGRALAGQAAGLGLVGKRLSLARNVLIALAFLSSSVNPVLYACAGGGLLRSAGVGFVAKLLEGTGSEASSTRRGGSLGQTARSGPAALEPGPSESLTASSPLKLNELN
UniProt P06241, whole entry, looked up: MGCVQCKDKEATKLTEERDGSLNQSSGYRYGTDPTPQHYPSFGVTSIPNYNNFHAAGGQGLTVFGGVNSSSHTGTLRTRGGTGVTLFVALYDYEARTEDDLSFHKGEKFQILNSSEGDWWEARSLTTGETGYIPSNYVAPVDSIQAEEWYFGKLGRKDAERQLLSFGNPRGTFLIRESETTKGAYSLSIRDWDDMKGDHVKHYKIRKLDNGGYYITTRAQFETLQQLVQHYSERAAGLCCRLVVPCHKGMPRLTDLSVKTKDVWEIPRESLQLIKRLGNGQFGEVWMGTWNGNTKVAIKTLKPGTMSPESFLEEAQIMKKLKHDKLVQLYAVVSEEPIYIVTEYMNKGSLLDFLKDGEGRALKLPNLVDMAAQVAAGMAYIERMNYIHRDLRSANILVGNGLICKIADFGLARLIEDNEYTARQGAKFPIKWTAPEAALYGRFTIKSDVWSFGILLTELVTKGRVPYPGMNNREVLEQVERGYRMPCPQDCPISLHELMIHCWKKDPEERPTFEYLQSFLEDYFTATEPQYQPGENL
UniProt P07948: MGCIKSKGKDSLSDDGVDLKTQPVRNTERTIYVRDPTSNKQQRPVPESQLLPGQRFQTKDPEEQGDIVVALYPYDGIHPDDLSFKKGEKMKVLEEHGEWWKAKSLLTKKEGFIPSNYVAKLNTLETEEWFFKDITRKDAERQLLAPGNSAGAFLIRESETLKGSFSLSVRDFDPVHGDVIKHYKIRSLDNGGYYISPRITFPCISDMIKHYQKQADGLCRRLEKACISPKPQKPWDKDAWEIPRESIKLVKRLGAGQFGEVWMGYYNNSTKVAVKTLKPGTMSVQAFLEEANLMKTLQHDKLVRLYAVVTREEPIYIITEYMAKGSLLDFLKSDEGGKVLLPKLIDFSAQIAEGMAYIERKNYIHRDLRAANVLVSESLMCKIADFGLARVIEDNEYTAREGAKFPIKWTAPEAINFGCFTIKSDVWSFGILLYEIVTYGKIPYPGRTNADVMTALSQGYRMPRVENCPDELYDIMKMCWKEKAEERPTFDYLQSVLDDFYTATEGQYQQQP
UniProt P35813: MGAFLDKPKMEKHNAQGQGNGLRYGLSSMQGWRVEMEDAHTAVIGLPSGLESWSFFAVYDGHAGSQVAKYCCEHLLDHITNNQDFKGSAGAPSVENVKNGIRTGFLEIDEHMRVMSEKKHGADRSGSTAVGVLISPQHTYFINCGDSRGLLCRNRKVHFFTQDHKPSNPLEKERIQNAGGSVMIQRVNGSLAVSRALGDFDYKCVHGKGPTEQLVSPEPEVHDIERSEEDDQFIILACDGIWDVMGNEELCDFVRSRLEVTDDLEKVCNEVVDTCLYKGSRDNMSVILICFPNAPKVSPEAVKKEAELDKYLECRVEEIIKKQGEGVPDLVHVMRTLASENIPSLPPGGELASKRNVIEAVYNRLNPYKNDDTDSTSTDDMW
UniProt P19327, whole entry, looked up: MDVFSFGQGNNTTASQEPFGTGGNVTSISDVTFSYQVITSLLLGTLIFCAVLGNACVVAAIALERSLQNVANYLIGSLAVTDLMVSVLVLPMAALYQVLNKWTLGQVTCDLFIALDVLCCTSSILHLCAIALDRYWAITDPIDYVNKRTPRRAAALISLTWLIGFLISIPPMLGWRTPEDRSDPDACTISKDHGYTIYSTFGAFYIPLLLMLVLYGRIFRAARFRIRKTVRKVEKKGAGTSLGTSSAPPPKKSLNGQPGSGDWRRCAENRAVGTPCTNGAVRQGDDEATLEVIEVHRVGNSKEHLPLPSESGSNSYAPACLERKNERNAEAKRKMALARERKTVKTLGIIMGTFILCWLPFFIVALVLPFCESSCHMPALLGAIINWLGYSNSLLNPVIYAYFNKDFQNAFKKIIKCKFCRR
UniProt P16177, whole entry, looked up: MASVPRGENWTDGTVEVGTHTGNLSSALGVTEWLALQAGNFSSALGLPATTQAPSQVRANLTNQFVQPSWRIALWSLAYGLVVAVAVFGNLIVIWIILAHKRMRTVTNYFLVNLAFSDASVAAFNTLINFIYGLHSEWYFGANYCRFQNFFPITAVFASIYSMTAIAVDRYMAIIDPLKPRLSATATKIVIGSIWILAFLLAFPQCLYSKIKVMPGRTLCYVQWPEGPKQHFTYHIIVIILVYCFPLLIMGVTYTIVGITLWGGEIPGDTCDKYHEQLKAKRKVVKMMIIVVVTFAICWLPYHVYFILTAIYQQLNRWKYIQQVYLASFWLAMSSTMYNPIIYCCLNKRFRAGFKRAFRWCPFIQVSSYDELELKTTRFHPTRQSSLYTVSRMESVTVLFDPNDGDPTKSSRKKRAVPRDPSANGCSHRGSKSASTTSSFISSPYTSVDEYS
UniProt P28646: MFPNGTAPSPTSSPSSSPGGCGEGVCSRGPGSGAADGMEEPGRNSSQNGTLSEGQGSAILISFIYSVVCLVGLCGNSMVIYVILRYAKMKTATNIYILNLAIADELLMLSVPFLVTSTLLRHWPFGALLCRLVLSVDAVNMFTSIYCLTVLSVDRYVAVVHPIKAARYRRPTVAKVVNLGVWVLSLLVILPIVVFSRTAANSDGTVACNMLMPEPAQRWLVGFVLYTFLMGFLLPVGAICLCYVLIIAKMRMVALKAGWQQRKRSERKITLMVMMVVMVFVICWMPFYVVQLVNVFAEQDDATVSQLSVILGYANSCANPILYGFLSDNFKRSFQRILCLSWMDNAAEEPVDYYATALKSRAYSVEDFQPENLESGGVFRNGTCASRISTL
UniProt P10828: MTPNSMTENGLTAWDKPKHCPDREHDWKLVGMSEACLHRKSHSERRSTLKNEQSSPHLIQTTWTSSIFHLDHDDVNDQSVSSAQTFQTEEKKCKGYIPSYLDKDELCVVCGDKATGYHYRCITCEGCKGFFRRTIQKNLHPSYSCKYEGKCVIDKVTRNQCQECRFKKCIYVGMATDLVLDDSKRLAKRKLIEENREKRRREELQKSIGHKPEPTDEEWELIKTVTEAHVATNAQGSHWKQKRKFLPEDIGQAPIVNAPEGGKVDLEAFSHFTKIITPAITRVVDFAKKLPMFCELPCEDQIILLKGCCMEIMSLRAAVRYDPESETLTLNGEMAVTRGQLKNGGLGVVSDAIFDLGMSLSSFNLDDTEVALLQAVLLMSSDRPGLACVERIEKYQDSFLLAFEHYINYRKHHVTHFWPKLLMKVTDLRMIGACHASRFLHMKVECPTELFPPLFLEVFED

What was measured:
[1] = read-out: organic anion transporter (SLCO1B1), SLCO1B1 (gene 10599); experiment: CLD_SLCO1B1_24hr: CellzDirect (CLD) Gene Expression Assay for organic anion transporter (SLCO1B1) at 24 hours (AID 2283690)
Summary of the method: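 Primary human hepatocytes (two donor preparations) dosed daily for two days with chemicals at multiple concentrations, 0.2% DMSO vehicle. SLCO1B1 mRNA at 24 h measured by qNPA chemiluminescence; induction fitted relative to DMSO.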

[2] = read-out: Cytochrome P450 2C19 (Homo sapiens) (UniProt P33261); experiment: CLD_CYP2C19_48hr: CellzDirect (CLD) Gene Expression Assay for xenobiotic metabolism (CYP2C19) at 48 hours (AID 2283700);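 further: fitted upward so actives raise CYP2C19 mRNA above the 0.2% DMSO vehicle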
Summary of the method: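 Primary human hepatocytes (two donor preparations) dosed daily for two days, harvested at 48 h; CYP2C19 mRNA induction measured by qNPA chemiluminescence. Gain-of-signal fitted relative to 0.2% DMSO vehicle as baseline.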

[3] = CLD_ACTIN_48hr: CellzDirect (CLD) Gene Expression Assay for Baseline Control (Actin) at 48 hours (AID 2283702)
Summary of the method: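 Primary human hepatocytes (two donor preparations) dosed daily for two days with ToxCast chemicals at multiple concentrations versus 0.2% DMSO vehicle; harvested at 48 h. Actin mRNA measured as a background control by quantitative nuclease protection assay with chemiluminescence.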

[4] = read-out: Glyceraldehyde-3-phosphate dehydrogenase (Homo sapiens) (UniProt P04406); experiment: CLD_GAPDH_48hr: CellzDirect (CLD) Gene Expression Assay for Baseline Control (Glyceraldehyde 3-phosphate dehydrogenase) at 48 hours (AID 2283706);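 further: active means higher GAPDH mRNA than DMSO vehicle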
Summary of the method: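 Primary human hepatocytes dosed daily for two days with fresh chemical at multiple concentrations, 0.2% DMSO vehicle; GAPDH mRNA measured at 48 h by quantitative nuclease protection assay with chemiluminescence, fitted upward relative to DMSO as background control.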

[5] = read-out: sulfotransferase (SULT2A), SULT2A1 (gene 6822); experiment: CLD_SULT2A_48hr: CellzDirect (CLD) Gene Expression Assay for sulfotransferase (SULT2A) at 48 hours (AID 2283710);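 further: hits raise SULT2A1 transcript above the 0.2% DMSO vehicle baseline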
Summary of the method: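 Primary human hepatocytes (two donor preparations) dosed daily for two days with chemicals at multiple concentrations, vehicle 0.2% DMSO; SULT2A1 mRNA induction at 48 h by quantitative nuclease protection assay, chemiluminescent read-out, fitted for gain of signal versus DMSO.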

[6] = read-out: HMG-CoA synthase (HMGCS2), HMGCS2 (gene 3158); experiment: CLD_HMGCS2_48hr: CellzDirect (CLD) Gene Expression Assay for HMG-CoA synthase (HMGCS2) at 48 hours (AID 2283711)
Summary of the method: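 Primary human hepatocytes from two donors dosed daily for two days, 0.2% DMSO vehicle. HMGCS2 mRNA measured 48 h after dosing by quantitative nuclease protection assay with chemiluminescent read-out; induction fitted relative to DMSO, cytotoxicity flagged by microscopy.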

[7] = target: human Endothelin Receptor Type A (ETA), EDNRA (gene 1909) (UniProt P25101); experiment: NVS_GPCR_hETA: NovaScreen (NVS) G Protein-Coupled Receptor Assay for human Endothelin Receptor Type A (ETA) (AID 2283265)
Summary of the method: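 Cell-free radioligand displacement using SH-SY5Y-derived protein, 3 h incubation, filter-based scintillation counting. Primary screen in duplicate at 25 uM; actives then run in concentration-response up to 50 uM; loss of binding fitted versus DMSO.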

[8] = target: human Vasopressin 1A Receptor (V1A), AVPR1A (gene 552) (UniProt P37288); experiment: NVS_GPCR_hV1A: NovaScreen (NVS) G Protein-Coupled Receptor Assay for human Vasopressin 1A Receptor (V1A) (AID 2283284)
Summary of the method: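 Cell-free radioligand displacement on human platelet preparations, 1.5 h incubation, filter-based scintillation counting. Chemicals first tested in duplicate at 25 uM; actives then run in concentration-response up to 50 uM, loss of signal fitted against DMSO.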

[9] = TAMU_HCS_1.5hr_SingleDonor1434_Cytotoxicity: Cytotoxicity Assessment using High-content Screening (HCS) Fluorescent Imaging for the Texas A&M University (TAMU) 1.5-hr Human Induced Pluripotent Stem Cell (iPSC)-derived Cardiotoxicity Assay (AID 2284234)
Summary of the method: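 Human iPSC-derived cardiomyocytes dosed at 0.2, 1, 10, 100 uM final (0.5% DMSO) for 90 min at 37 C. Hoechst 33342-stained nuclei counted by 10x high-content imaging; POD is EC10, a 10% drop in total cell count versus DMSO.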

[10] = IUF_NPC4_neurite_area_120hr: Leibniz Research Institute for Environmental Medicine (IUF) 120-hour Neuronal Morphology Assay for Neurite Area (NPC4) (AID 2284305)
Summary of the method: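 Neurite area is read out as the mean pixel area, excluding nuclei, of skeletonized TUBB3-positive neurons imaged after 120 h. Primary human neural progenitor spheres differentiated on poly-D-lysine/laminin with compound present from day 0. Activity was referenced to DMSO controls.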

[11] = target: rat Catechol-O-Methyl Transferase (COMT), Comt (gene 24267) (UniProt P22734); experiment: NVS_ENZ_rCOMT: NovaScreen (NVS) Enzymatic Assay for rat Catechol-O-Methyl Transferase (COMT) (AID 2283235)
Summary of the method: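 Cell-free enzyme activity with protein extracted from rat dorsal striatum, measured by HPLC with absorbance detection. Compounds screened at 25 uM in duplicate; actives then run in concentration-response up to 50 uM, loss of signal versus DMSO.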

[12] = target: human Leukotriene B4 Receptor 1 (LTB4-BLT1), LTB4R (gene 1241) (UniProt Q15722); experiment: NVS_GPCR_hLTB4_BLT1: NovaScreen (NVS) G Protein-Coupled Receptor Assay for human Leukotriene B4 Receptor 1 (LTB4-BLT1) (AID 2283271)
Summary of the method: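 Radioligand displacement binding on receptor extracted from human neutrophils, cell-free, 1 h after dosing; filter-based scintillation counting. Primary screen in duplicate at 25 uM, actives retested in concentration-response up to 50 uM; loss of signal versus DMSO.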

[13] = target: human FYN Proto-Oncogene, Src family Tyrosine Kinase (Fyn), FYN (gene 2534) (UniProt P06241); experiment: NVS_ENZ_hFyn: NovaScreen (NVS) Enzymatic Assay for human FYN Proto-Oncogene, Src family Tyrosine Kinase (Fyn) (AID 2283161)
Summary of the method: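 Recombinant enzyme with fluorescent substrate, product separated by electrophoretic mobility shift; read 1 h after dosing. Duplicate 25 uM single-point screen, actives retested in concentration series; loss of signal vs DMSO.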

[14] = target: human LYN Proto-Oncogene, Src family Tyrosine Kinase (LynA), LYN (gene 4067) (UniProt P07948); experiment: NVS_ENZ_hLynA: NovaScreen (NVS) Enzymatic Assay for human LYN Proto-Oncogene, Src family Tyrosine Kinase (LynA) (AID 2283173)
Summary of the method: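 Recombinant kinase with fluorescent substrate; product separated from substrate by electrophoretic mobility shift and read 1 h after dosing. Duplicate screen at 25 uM, then concentration-response up to 50 uM; activity scored as signal loss against DMSO.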

[15] = target: human Protein Phosphatase, Mg2+/Mn2+ Dependent 1A (PPM1A), PPM1A (gene 5494) (UniProt P35813); experiment: NVS_ENZ_hPPM1A: NovaScreen (NVS) Enzymatic Assay for human Protein Phosphatase, Mg2+/Mn2+ Dependent 1A (PPM1A) (AID 2283198)
Summary of the method: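 Cell-free recombinant PPM1A phosphatase assay with fluorescent substrate, read 1 h after dosing by electrophoretic mobility shift. Chemicals screened in duplicate at 25 uM, then in concentration-response up to 50 uM; loss of activity versus DMSO.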

[16] = target: rat Serotonin, 5-Hydroxytryptamine Receptor (5HT), Non-Selective Binding, Htr1a (gene 24473) (UniProt P19327); experiment: NVS_GPCR_r5HT_NonSelective: NovaScreen (NVS) G Protein-Coupled Receptor Assay for rat Serotonin, 5-Hydroxytryptamine Receptor (5HT), Non-Selective Binding (AID 2283295)
Summary of the method: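 Radioligand displacement on rat cortical membranes, 1 h incubation, filter-based scintillation counting. Primary duplicates at 25 uM, actives retested in concentration series; loss of signal fitted against DMSO as baseline.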

[17] = target: rat Neurokinin-3 Receptor (NK3), Tacr3 (gene 24808) (UniProt P16177); experiment: NVS_GPCR_rNK3: NovaScreen (NVS) G Protein-Coupled Receptor Assay for rat Neurokinin-3 Receptor (NK3) (AID 2283310)
Summary of the method: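 Rat cortical membranes; radioligand binding with filtration and scintillation counting, 2 h after dosing. Primary screen in duplicate at 25 uM, then concentration-response up to 50 uM; loss of binding signal relative to DMSO.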

[18] = target: rat Somatostatin Receptor (SST), Sstr1 (gene 25033) (UniProt P28646); experiment: NVS_GPCR_rSST: NovaScreen (NVS) G Protein-Coupled Receptor Assay for rat Somatostatin Receptor (SST) (AID 2283314)
Summary of the method: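 Rat forebrain membranes; radioligand displacement read by filter-based scintillation counting 1 h after dosing. Primary screen in duplicate at 25 uM. Actives (e.g., 30% inhibition) were rerun as concentration-response to 50 uM max and fitted against DMSO.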

[19] = target: Thyroid hormone receptor alpha (Rattus norvegicus) + Thyroid hormone receptor beta (Rattus norvegicus) (UniProt P18113+P63059); experiment: TOX21_TR_LUC_GH3_Agonist_Followup: Tox21 GH3 Thyroid Hormone Receptor Agonism Luciferase Follow-Up Assay (AID 2283939)
Summary of the method: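 Rat GH3 cells (1,500/well) in serum-free assay medium, treated with 15-point series, 92 uM to 5 nM final, for 24 h at 37C. Luciferase via ONE-Glo luminescence; gain of signal fitted against DMSO, T3 positive control.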

[20] = target: THRB (gene 7068) (UniProt P10828); experiment: TOX21_TRB_BLA_Agonist_Followup_ratio: Tox21 Thyroid Hormone Receptor beta Agonism Beta-lactamase (BLA) Follow-Up Assay, Ratio (AID 2283954)
Summary of the method: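 Human TRβ LBD–GAL4 DBD fusion in GeneBLAzer UAS-bla HEK293T cells; 11 concentrations in triplicate, 18 h at 37°C/5% CO2, T3 as agonist control. CCF4-AM substrate 2 h at room temperature; 460:530 nm ratio fitted for gain of signal versus DMSO.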

Question: With CCCCCCC(C)OC(=O)COc1nc(F)c(Cl)c(N)c1Cl (stereo not given) as the molecule, how does the outcome [1] read?
Answer: Its outcome is “inactive”.

Question: What about the outcome [2] of the same molecule?
Answer: The outcome was “inactive”.

Question: And the AC50 [3]?
Answer: Its AC50 is inconclusive: 20 µM.

Question: What about the outcome [4] of the same molecule?
Answer: Its outcome is “inactive”.

Question: And the AC50 [5]?
Answer: The AC50 was inconclusive: 20 µM.

Question: And the outcome [6]?
Answer: The outcome was “inactive”.

Question: With CC(=O)Oc1ccccc1C(=O)O as the molecule, how does the AC50 [7] read?
Answer: Its AC50 is inconclusive: 2.93 µM.

Question: What about the AC50 [8] of the same molecule?
Answer: Its AC50 is inconclusive: 41 µM.

Question: And the outcome [9]?
Answer: The outcome was “inactive”.

Question: And the AC50 [10]?
Answer: Its AC50 is inconclusive: 1.98 µM.

Question: What does the source list for CC(=O)OCC(COC(C)=O)OC(C)=O?
Answer: outcome [11]: inactive; AC50 [12]: active: 40.5 µM

Question: Which results are given for CNS(=O)(=O)c1cc(C(=O)N2CCC(CCN3C4CCC3CC(n3c(C)nc5ccccc53)C4)(c3cccc(F)c3)CC2)c(Cl)cc1F (stereo not given)?
Answer: AC50 [13]: inconclusive: 0.173 µM; outcome [14]: inactive; AC50 [15]: inconclusive: 12 µM; outcome [16]: inactive; AC50 [17]: active: 5.41 µM; outcome [18]: inactive

Question: For CC(=O)Nc1ccc(C(=O)CCl)cc1, which AC50 [19] is on record?
Answer: Its AC50 is inconclusive: 13.6 µM.

Question: And the AC50 [20]?
Answer: The AC50 was inconclusive: 38.3 µM.
